Source: article PMC5424160
No constants are given. Whether binding was seen depends on the method and setting. Binding seen in cells or lysates may run through a third protein. Some binding calls cover weakened binding; strength is not graded here.

Chains of the proteins cited; added tags and fusions are not shown.
UniProt P01106: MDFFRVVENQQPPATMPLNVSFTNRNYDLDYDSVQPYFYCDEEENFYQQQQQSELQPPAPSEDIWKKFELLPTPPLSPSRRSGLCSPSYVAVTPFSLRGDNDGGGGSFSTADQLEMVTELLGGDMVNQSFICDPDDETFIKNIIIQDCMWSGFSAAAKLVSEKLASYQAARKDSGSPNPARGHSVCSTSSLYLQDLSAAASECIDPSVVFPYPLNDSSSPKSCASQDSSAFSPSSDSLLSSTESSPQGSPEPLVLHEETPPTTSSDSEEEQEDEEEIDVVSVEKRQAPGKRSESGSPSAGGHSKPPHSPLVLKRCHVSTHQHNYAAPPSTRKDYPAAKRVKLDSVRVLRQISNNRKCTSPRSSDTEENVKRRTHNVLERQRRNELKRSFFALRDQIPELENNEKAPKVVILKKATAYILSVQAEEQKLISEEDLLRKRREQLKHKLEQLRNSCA

Columns and labels:
[1] = target: T1, endogenous Menin (human (endogenous in 293T)) (UniProt O00255); assay: co-IP; endogenous proteins, cells lysed in low-salt IP buffer (150 mM NaCl), side by side with the high-salt IP; IP of Menin
T1 sequence: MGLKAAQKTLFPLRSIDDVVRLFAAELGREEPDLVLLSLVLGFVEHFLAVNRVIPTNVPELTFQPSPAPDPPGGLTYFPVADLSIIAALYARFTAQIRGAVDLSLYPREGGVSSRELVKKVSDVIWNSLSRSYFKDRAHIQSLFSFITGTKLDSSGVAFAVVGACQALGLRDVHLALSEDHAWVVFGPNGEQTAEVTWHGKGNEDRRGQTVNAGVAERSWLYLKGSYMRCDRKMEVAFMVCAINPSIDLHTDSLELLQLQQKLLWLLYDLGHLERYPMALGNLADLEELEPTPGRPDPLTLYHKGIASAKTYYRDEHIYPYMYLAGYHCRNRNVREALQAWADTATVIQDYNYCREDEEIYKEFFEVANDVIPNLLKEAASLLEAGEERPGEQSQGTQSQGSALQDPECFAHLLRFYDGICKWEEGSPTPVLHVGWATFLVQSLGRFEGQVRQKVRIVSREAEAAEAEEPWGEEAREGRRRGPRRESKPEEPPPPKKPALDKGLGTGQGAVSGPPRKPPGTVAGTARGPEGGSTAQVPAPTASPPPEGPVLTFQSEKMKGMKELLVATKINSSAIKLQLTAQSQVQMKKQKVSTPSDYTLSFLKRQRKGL

[2] = target: T1, endogenous Menin (human (endogenous in 293T)); assay: co-IP; endogenous proteins, 293T cells lysed in high-salt IP buffer (0.5% NP-40, 20 mM HEPES pH 7.5, 300 mM NaCl, 2 mM EDTA); IP with anti-Menin antibody or IgG

- binding [1]: binds
- binding [2]: binds
Substance: endogenous MYC (from UniProt P01106 1-454)
